Measured data: PubChem BioAssay AID1259314 (Drosophila RNAi Screening Center, 2017)
Shown is one part, drawn at random, of about 3,100 deposited reagents. 289 of all reagents (9.3%) count as active. 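Active includes both higher and lower ATP than plate average; check the z-score sign for direction.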 Unmarked entries are inactive. Reagent sequences are not shown. Not given: the amount of reagent.

Test: 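Transmembrane protein genes affecting ATP after manganese overload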 (primary screen)
Cells: Drosophila S2R+ cells
Knock-down reagent: long dsRNA against Drosophila genes
Duration: 5 days (4 days knock-down, then 1 day metal exposure)
Challenge: manganese chloride added to 15 mM for 24 hours
Measured: 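Luciferase ATP signal used as a proxy for viable cell number, reported as one averaged z-score per dsRNA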
Direction: mean ATP z-score: higher = more ATP than the plate average, more viable cells under manganese
Active means: 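Called active when the mean ATP z-score is above 1.5 or below -1.5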
Meaning of the calls: active = strong ATP change, up or down; inactive = no strong ATP change

Mpv17 (GeneID 43831) [DRSC17198] gave mean ATP z-score -0.398. CG32987 (GeneID 318273) [DRSC22373] gave mean ATP z-score -1.39. CG32987 (GeneID 318273) [DRSC28687] showed mean ATP z-score -0.612. Against spin (GeneID 45380) [DRSC22271], the entry reads mean ATP z-score -1.41. Knock-down of spin (GeneID 45380) [DRSC39628] resulted in: mean ATP z-score -0.773. Against Lap1 (GeneID 36670) [DRSC07454] the deposit lists mean ATP z-score 0.473.

Knock-down of Lap1 (GeneID 36670) [DRSC39730] resulted in: mean ATP z-score -0.0477. With knock-down of CG9743 (GeneID 43593) [DRSC16552], the screen gave mean ATP z-score 0.507. Silencing of CG9743 (GeneID 43593) [DRSC28943] gave: mean ATP z-score 2.03 (active). Knock-down of PK1-R (GeneID 41713) [DRSC16577] gave: mean ATP z-score -0.253. Knock-down of Dop1R1 (GeneID 41726) [DRSC13021] came out at: mean ATP z-score -0.121. Dop1R1 (GeneID 41726) [DRSC16652] gave mean ATP z-score 0.844.

For Dop1R1 (GeneID 41726) [DRSC23514], the entry reads mean ATP z-score 0.167. Hacd1 (GeneID 34614) [DRSC02988] scored mean ATP z-score 0.387. Against ClC-c (GeneID 39759) [DRSC10499], the entry reads mean ATP z-score -0.436. Depletion of ClC-c (GeneID 39759) [DRSC39779] resulted in: mean ATP z-score -0.445. After knock-down of PGAP1 (GeneID 31487) [DRSC18286], the record shows mean ATP z-score 1.49. Against PGAP1 (GeneID 31487) [DRSC28989] the deposit lists mean ATP z-score 0.371.

CG7840 (GeneID 34136) [DRSC03075] scored mean ATP z-score -1.22. CG7840 (GeneID 34136) [DRSC39867] gave mean ATP z-score -0.0502.
